Results on two molecules are retold here after article PMC12554172, “Systematic analysis of the RGS2 degron reveals characteristics of substrate recognition by the F-box protein FBXO44” (The Journal of Biological Chemistry, 2025).

Residue numbers refer to the chain shown, from its start. Names and notes keep the numbering of the source. These are yes or no findings as the source states them, for the method shown. Binding seen in cells or lysates may run through a third protein. Some results given as binding are weak or reduced against the parent protein; the word gives no strength. Where a sequence is shown, tags or fusion partners need not be part of it.

The target in the assay is T1, RGS2^WT-HA (UniProt P41220).
T1 sequence: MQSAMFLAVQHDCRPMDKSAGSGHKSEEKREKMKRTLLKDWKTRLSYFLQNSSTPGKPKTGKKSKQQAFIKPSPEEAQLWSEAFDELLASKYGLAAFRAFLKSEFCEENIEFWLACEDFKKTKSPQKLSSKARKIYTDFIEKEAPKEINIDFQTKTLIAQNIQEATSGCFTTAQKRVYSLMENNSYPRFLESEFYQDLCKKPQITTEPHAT
Briefly: co-IP; HEK-293T cells transiently transfected with RGS2-HA and FLAG-FBXO44 (WT or mutants); RIPA lysate; IP with rabbit anti-HA and protein A agarose, 2 h at 4 °C; bands normalised to input.

B1: FLAG-FBXO44 (WT) (protein, UniProt Q9H4M3-1 1-255)
chain: MAVGNINELPENILLELFTHVPARQLLLNCRLVCSLWRDLIDLVTLWKRKCLREGFITEDWDQPVADWKIFYFLRSLHRNLLHNPCAEEGFEFWSLDVNGGDEWKVEDLSRDQRKEFPNDQVKKYFVTSYYTCLKSQVVDLKAEGYWEELMDTTRPDIEVKDWFAARPDCGSKYQLCVQLLSSAHAPLGTFQPDPATIQQKSDAKWREVSHTFSNYPPGVRYIWFQHGGVDTHYWAGWYGPRVTNSSITIGPPLP
Turning to B1, the binding result was “binds”.

B2: FLAG-FBXO44^Y234A (protein, UniProt Q9H4M3-1 1-255)
chain: B1 chain with Y234A
For the molecule B2, the binding result is on record as “binds”.
